The results in this text go back to the supplement of paper PMC6414424.

± gives the standard deviation of the averaged measurements. This is one part of the list.

The test system of the assay is APPdp1-6 iPSC-derived neurons. Description: pThr231Tau/total Tau ratio Z-score vs DMSO vehicle wells; higher = more pThr231Tau relative to total Tau. Conditions: 5 µM; treatment time 5 days.
Regarding `CCCCCCNC(=O)n1cc(F)c(=O)[nH]c1=O`, the “pThr231Tau/total Tau ratio Z-score” value is 0.578 ± 1.1.

`CCCCC(CC)CN=C(N)NC(N)=NCCCCCCN=C(N)NC(N)=NCC(CC)CCCC` (stereo not given) [Prestw-777]: the “pThr231Tau/total Tau ratio Z-score” value is -2.94 ± 0.68.

As to `CC(C)Oc1ccc2c(=O)c(-c3ccccc3)coc2c1` [IPRAFLAVONE    Therap cat: anabolic], the “pThr231Tau/total Tau ratio Z-score” value is -0.612 ± 0.032. In the case of `Cc1cc2cc3c(C)cc(=O)oc3c(C)c2o1` [Prestw-709], the “pThr231Tau/total Tau ratio Z-score” value was 0.0247 ± 0.2. Regarding `CC(=O)Nc1c(I)cc(I)c(C(=O)O)c1I` [ACETRIAZOIC ACID, X-ray contrast medium], the “pThr231Tau/total Tau ratio Z-score” value was found to be 0.315 ± 0.61.

On to `CC(=O)Nc1nnc(S(N)(=O)=O)s1` [Prestw-3], for which the “pThr231Tau/total Tau ratio Z-score” value was -0.143 ± 0.11. In the case of `Clc1ccc2nsnc2c1NC1=NCCN1` [Prestw-1182] it was -0.258 ± 0.23. With `CCCCOc1cc(C(=O)OCCN(CC)CC)ccc1N` [Prestw-57], the “pThr231Tau/total Tau ratio Z-score” value was -1.37 ± 0.72. As to `C[N+](C)(C)CC(O)CC(=O)[O-]` (stereo not given), the “pThr231Tau/total Tau ratio Z-score” value is 0.442 ± 0.53. `COC(=O)[C@H](Cc1ccccc1)NC(=O)[C@@H](N)CC(=O)O` [Aspartame]: the “pThr231Tau/total Tau ratio Z-score” value is -1.11 ± 0.72. Take `C[C@]12CC[C@@H]3c4ccc(O)cc4C[C@@H](CCCCCCCCC[S+]([O-])CCCC(F)(F)C(F)(F)F)[C@H]3[C@@H]1CC[C@@H]2O` (stereo not given in full) [Prestw-1424]: the “pThr231Tau/total Tau ratio Z-score” value was -1.15 ± 0.32. As for `CO/N=C(\C(=O)N[C@@H]1C(=O)N2C(C(=O)O)=C(COC(C)=O)CS[C@H]12)c1csc(N)n1` [Prestw-139], the “pThr231Tau/total Tau ratio Z-score” value came out at 0.657 ± 1. On to `CC(CNC1CCCCC1)OC(=O)c1ccccc1` (stereo not given) [Prestw-788], for which the “pThr231Tau/total Tau ratio Z-score” value stood at 1.46 ± 1.6. Regarding `Nc1ccc(S(=O)(=O)Nc2nccs2)cc1` [Prestw-16], the “pThr231Tau/total Tau ratio Z-score” value was -1.36 ± 1.3.

`Cc1ccc(-c2cc(C(F)(F)F)nn2-c2ccc(S(N)(=O)=O)cc2)cc1` [Prestw-1371]: the “pThr231Tau/total Tau ratio Z-score” value was -0.354 ± 0.77. Consider `C[C@@H]1CCC[C@H](C)N1NC(=O)c1ccc(Cl)c(S(N)(=O)=O)c1` [Prestw-354], for which the “pThr231Tau/total Tau ratio Z-score” value is 0.322 ± 0.68. With `CC[C@H]1OC(=O)[C@H](C)[C@@H](O[C@H]2C[C@@](C)(OC)[C@@H](O)[C@H](C)O2)[C@H](C)[C@@H](O[C@@H]2O[C@H](C)C[C@H](N(C)C)[C@H]2O)[C@](C)(O)C[C@@H](C)CN(C)[C@H](C)[C@@H](O)[C@]1(C)O` [Prestw-1234], the “pThr231Tau/total Tau ratio Z-score” value came out at 0.585 ± 1. The figure for `CC1(C)S[C@@H]2[C@H](NC(=O)C(C(=O)O)c3ccsc3)C(=O)N2[C@H]1C(=O)O` (stereo not given in full) [TICARCILLIN DISODIUM, antibacterial] is 0.656 ± 1.4; for `CN[C@H]1CC[C@@H](c2ccc(Cl)c(Cl)c2)c2ccccc21` [Prestw-1014] it is -1.45 ± 1.9. On to `CCN(CC)CCNC(=O)c1ccc(N)cc1` [Prestw-337], for which the “pThr231Tau/total Tau ratio Z-score” value was 1.18 ± 0.069. On to `NC[C@H](O)c1ccc(O)c(O)c1` [Norepinephrine], for which the “pThr231Tau/total Tau ratio Z-score” value was 0.47 ± 0.78. The figure for `CC(=O)Nc1c(I)c(C(=O)N[C@H]2C(O)O[C@H](CO)[C@@H](O)[C@@H]2O)c(I)c(N(C)C(C)=O)c1I` (stereo not given in full) [Prestw-463] is -0.68 ± 0.017; for `CCCCCCOc1ccccc1C(N)=O` [EXALAMIDE    Therap cat: antifungal] it is 0.671 ± 0.46; for `O=C(O)C1=C(CSc2nnnn2CS(=O)(=O)O)CS[C@@H]2[C@H](NC(=O)[C@H](O)c3ccccc3)C(=O)N12` [CEFONICID SODIUM, antibacterial] it is -1.1 ± 0.4. On to `CCOC1O[C@H]([C@@H](COCc2ccccc2)OCc2ccccc2)[C@H](OCc2ccccc2)[C@H]1O` (stereo not given in full) [Prestw-1019], for which the “pThr231Tau/total Tau ratio Z-score” value is -0.523 ± 0.034. The figure for `CNCC(O)c1ccc(O)c(O)c1` (stereo not given) [Prestw-1480] is 0.339 ± 0.17; for `COc1ccc2cc3[n+](cc2c1OC)CCc1cc2c(cc1-3)OCO2` [Berberine] it is -4.36 ± 0.68; for `CC(=O)NC[C@H]1CN(c2ccc(N3CCOCC3)c(F)c2)C(=O)O1` [Prestw-1429] it is 0.207 ± 0.52. Take `NC(=O)c1cc[n+](CC2=C(C(=O)[O-])N3C(=O)[C@@H](NC(=O)Cc4cccs4)[C@H]3SC2)cc1`: the “pThr231Tau/total Tau ratio Z-score” value worked out at 1.7 ± 1.6.

In the case of `Cc1nccn1CC1CCc2c(c3ccccc3n2C)C1=O` (stereo not given) [Prestw-1058], the “pThr231Tau/total Tau ratio Z-score” value stood at 0.595 ± 1.4. In the case of `O=C1C(O)=C(O)C(=O)C(O)=C1O` [Prestw-835] it was -0.484 ± 1.2; in that of `COc1ccc2c(c1)c(CC(=O)OCC(=O)O)c(C)n2C(=O)c1ccc(Cl)cc1` [Prestw-296], 0.692 ± 1.2. Consider `Cc1c2oc3c(C)ccc(C(=O)N[C@@H]4C(=O)N[C@H](C(C)C)C(=O)N5CCC[C@H]5C(=O)N(C)CC(=O)N(C)[C@@H](C(C)C)C(=O)O[C@@H]4C)c3nc-2c(C(=O)N[C@@H]2C(=O)N[C@H](C(C)C)C(=O)N3CCC[C@H]3C(=O)N(C)CC(=O)N(C)[C@@H](C(C)C)C(=O)O[C@@H]2C)c(N)c1=O` [DACTINOMYCIN, antineoplastic, intercalating agent], for which the “pThr231Tau/total Tau ratio Z-score” value was -0.69 ± 0.96. In the case of `CCOCCn1c(N2CCCN(C)CC2)nc2ccccc21` [Prestw-1274], the “pThr231Tau/total Tau ratio Z-score” value was -0.248 ± 0.11. Regarding `CC1=C(C(=O)O)N2C(=O)[C@@H](NC(=O)[C@H](N)c3ccccc3)[C@H]2SC1` [Prestw-358], the “pThr231Tau/total Tau ratio Z-score” value amounted to 0.518 ± 0.4.
